In PubChem BioAssay (EPA / NIEHS):
“And” between values parts separate entries of the source, which are not always exact repeats. Equal entries are not always repeated. Inconclusive means that the source gave no clear call. Such entries were picked first, then a sample of the others. Where the call is inconclusive, the potency comes from a doubtful curve fit. A structure can be active in one record and inactive in another. The source made the active and inactive calls. Rule for the calls: active = hit-call score of the fitted dose curve at least 0.9, where 1 is the maximum; inconclusive = response in the unintended direction; inactive = score below 0.9.

By UniProt entry, the sequences of proteins in these tests, tags left out. Where a name states a change or a piece, a line headed by the entry shows the natural chain unless it says otherwise.
UniProt P19793: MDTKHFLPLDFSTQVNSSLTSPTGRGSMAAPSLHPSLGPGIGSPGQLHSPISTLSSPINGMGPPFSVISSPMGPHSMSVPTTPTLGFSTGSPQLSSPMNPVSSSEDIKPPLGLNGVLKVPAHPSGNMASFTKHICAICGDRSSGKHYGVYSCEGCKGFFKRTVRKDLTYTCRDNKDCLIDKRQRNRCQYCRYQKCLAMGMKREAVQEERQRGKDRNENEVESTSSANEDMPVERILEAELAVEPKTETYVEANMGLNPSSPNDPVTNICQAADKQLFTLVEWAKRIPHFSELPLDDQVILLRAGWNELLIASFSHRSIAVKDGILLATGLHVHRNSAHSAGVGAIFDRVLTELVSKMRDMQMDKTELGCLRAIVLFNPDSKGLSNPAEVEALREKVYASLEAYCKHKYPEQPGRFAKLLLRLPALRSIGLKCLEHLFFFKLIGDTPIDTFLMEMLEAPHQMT
UniProt P04637, whole entry, looked up: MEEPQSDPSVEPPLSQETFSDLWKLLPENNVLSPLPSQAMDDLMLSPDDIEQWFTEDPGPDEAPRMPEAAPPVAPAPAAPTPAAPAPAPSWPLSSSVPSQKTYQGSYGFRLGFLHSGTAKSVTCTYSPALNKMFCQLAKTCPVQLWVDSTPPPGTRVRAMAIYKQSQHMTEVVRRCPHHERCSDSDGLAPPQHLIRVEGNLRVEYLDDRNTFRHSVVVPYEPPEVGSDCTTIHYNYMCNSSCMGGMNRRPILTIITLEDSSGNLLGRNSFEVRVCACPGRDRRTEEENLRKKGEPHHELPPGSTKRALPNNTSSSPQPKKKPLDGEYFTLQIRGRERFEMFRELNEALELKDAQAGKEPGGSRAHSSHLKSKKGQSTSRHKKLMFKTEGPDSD

Legend:
[1] = biological target: Retinoic acid receptor RXR-alpha (Homo sapiens) (UniProt P19793); assay: OT_NURR1_NURR1RXRa_0480: Odyssey Thera (OT) 8-hour HEK293T Protein Complementation Assay for Nurr1/retinoid X receptor (RXR) (AID 2283385)
Outline: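 HEK293T cells expressing Nurr1 and RXRα fused to reporter fragments were dosed with compound for 8 hours. Complex formation was read as fluorescence intensity and analysed as gain of signal against DMSO as baseline.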

[2] = biological target: Retinoic acid receptor RXR-alpha (Homo sapiens) (UniProt P19793); assay: OT_NURR1_NURR1RXRa_1440: Odyssey Thera (OT) 24-hour HEK293T Protein Complementation Assay for Nurr1/retinoid X receptor (RXR) (AID 2283386)
Outline: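 HEK293T cells were dosed with compound and read 24 h later by fluorescence intensity in a protein-fragment complementation format, where Nurr1–RXRα interaction reconstitutes a split reporter. Activity was fitted as gain of signal relative to DMSO baseline.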

[3] = TOX21_p53_BLA_p2_viability: Viability Assessment in the Tox21 HCT-116 p53 Agonism Beta-lactamase Assay, Phase 2 (AID 2283591);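 note: actives lower the ATP signal meaning cytotoxicity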
Outline: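 HCT-116 p53-bla cells (4000/well) rested 5 h at 37C, then received compounds in DMSO (217-fold dilution) for 16 h at 37C, 5% CO2. After the CCF4 read, CellTiter-Glo was added; ATP luminescence was read after 30 min at room temperature.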

[4] = biological target: Cellular tumor antigen p53 (Homo sapiens) (UniProt P04637); assay: TOX21_p53_BLA_p2_ratio: Tox21 HCT-116 p53 Agonism Beta-lactamase Assay, Ratio, Phase 2 (AID 2283592)
Outline: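 An inducible beta-lactamase reporter in HCT116 cells signals p53 pathway activation. After 16 h chemical exposure at 37C, cells load CCF4-AM substrate for 2 h at room temperature; activity is the cleaved/uncleaved emission ratio relative to DMSO.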

[5] = TOX21_p53_BLA_p3_viability: Viability Assessment in the Tox21 HCT-116 p53 Agonism Beta-lactamase Assay, Phase 3 (AID 2283593);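 note: cells exposed to compound for 16 h before reading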
Outline: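 HCT-116 cells (4000/well) rested 5 h at 37C, then got DMSO compounds by pin tool (217-fold dilution) for 16 h at 37C, 5% CO2. After the bla read, CellTiter-Glo was added and luminescence read at 30 min, room temperature.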

[6] = biological target: Cellular tumor antigen p53 (Homo sapiens) (UniProt P04637); assay: TOX21_p53_BLA_p3_ratio: Tox21 HCT-116 p53 Agonism Beta-lactamase Assay, Ratio, Phase 3 (AID 2283596)
Outline: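 HCT116 p53-bla cells (4000/well) given compound in DMSO (217-fold dilution) after 5 h, incubated 16 h at 37C. CCF4-AM substrate 2 h at room temperature; 460/530 nm emission ratio, gain fitted against DMSO.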

[7] = TOX21_p53_BLA_p4_viability: Viability Assessment in the Tox21 HCT-116 p53 Agonism Beta-lactamase Assay, Phase 4 (AID 2283597);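 note: hits lower the luminescence signal meaning cytotoxicity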
Outline: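 Compound exposure of HCT116 cells lasts 16 h at 37C, 5% CO2, with DMSO stocks diluted 217-fold. Cellular ATP is then quantified by CellTiter-Glo luminescence after 30 min at room temperature.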

[8] = TOX21_p53_BLA_p5_viability: Viability Assessment in the Tox21 HCT-116 p53 Agonism Beta-lactamase Assay, Phase 5 (AID 2283600)
Outline: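 Counter-readout for cytotoxicity: ATP-dependent luminescence from CellTiter-Glo, read in the beta-lactamase wells after 30 min at RT, following a 16 h compound exposure at 37C.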

[9] = biological target: Cellular tumor antigen p53 (Homo sapiens) (UniProt P04637); assay: TOX21_p53_BLA_p4_ratio: Tox21 HCT-116 p53 Agonism Beta-lactamase Assay, Ratio, Phase 4 (AID 2283601)
Outline: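 HCT116 cells carrying an inducible beta-lactamase reporter were plated at 4000 cells/well, rested 5 h, then exposed to compounds in DMSO (217-fold dilution) for 16 h at 37C. CCF4-AM substrate was loaded 2 h at room temperature; 460/530 nm emission ratio scored gain-of-signal versus DMSO.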

[10] = biological target: Cellular tumor antigen p53 (Homo sapiens) (UniProt P04637); assay: TOX21_p53_BLA_p5_ratio: Tox21 HCT-116 p53 Agonism Beta-lactamase Assay, Ratio, Phase 5 (AID 2283599)
Outline: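 HCT-116 cells carrying a p53-inducible beta-lactamase reporter were seeded at 4000 cells/well and dosed after 5 h with compound in DMSO (217-fold dilution). After 16 h at 37C, CCF4-AM substrate was added for 2 h, and the 460/530 nm emission ratio was scored as gain-of-signal versus DMSO.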

[11] = Tanguay_ZF_120hpf_SNOU_legacy: (Legacy) Oregon State University Tanguay Lab 120 Hour Post-fertilization zebrafish Assay for Snout Malformation (AID 2283637)
Outline: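 Tropical 5D wild-type zebrafish embryos, dechorionated with pronase at 4 hpf, were exposed singly from 6 hpf to 120 hpf statically at 28C in 0.64% DMSO. Snout malformation was scored present/absent by brightfield microscopy, fitted against DMSO.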

For `CCOC(N)=O`, the outcome [1] was “inactive”, the outcome [2] was “inactive” and the outcome [3] was “inactive”. For the same molecule, the AC50 [4] was inconclusive: 46.1 µM and inconclusive: 48.5 µM, the AC50 [5] was inconclusive: 75.4 µM and the outcome [5] was “inactive”. The AC50 [6] was active: 88.1 µM and inconclusive: 23 µM, the AC50 [7] was inconclusive: 48.5 µM and inconclusive: 23 µM and the outcome [7] was “inactive”. The AC50 [8] was inconclusive: 46.1 µM, the outcome [8] was “inactive” and the AC50 [9] was inconclusive: 46.1 µM.

In the case of `CC(C)=CCCC(C)=CC=O`, the outcome [1] is reported as “inactive”, the AC50 [2] is reported as inconclusive: 29.4 µM and the AC50 [3] is reported as inconclusive: 46.1 µM and inconclusive: 46.8 µM. The outcome [5] was “inactive”, the outcome [7] was “inactive” and the AC50 [10] was inconclusive: 46.1 µM and inconclusive: 46.8 µM. For the same molecule, the AC50 [8] was inconclusive: 46.8 µM and the outcome [8] was “inactive”.

In the case of `O=Nc1ccc(Nc2ccccc2)cc1`, the AC50 [1] is reported as active: 0.707 µM, the AC50 [2] is reported as inconclusive: 26.1 µM and the outcome [3] is reported as “inactive”. For the same molecule, the AC50 [4] was active: 46 µM and active: 46.3 µM, the AC50 [5] was active: 67 µM and the outcome [5] was “inactive”. The AC50 [7] was active: 85.3 µM and active: 75.2 µM, the outcome [8] was “inactive” and the AC50 [9] was active: 76.2 µM and active: 63 µM.

For `C=CC(=C)CCC=C(C)C`, the outcome [1] was “inactive”, the AC50 [2] was inconclusive: 12.6 µM and the outcome [3] was “inactive”. For the same molecule, the AC50 [5] was inconclusive: 46.1 µM, the outcome [6] was “inactive” and the outcome [7] was “inactive”.

With `O=C1c2ccccc2C(=O)N1SC1CCCCC1` the AC50 [1] was inconclusive: 92.5 µM, the AC50 [2] was inconclusive: 90.4 µM and the AC50 [3] was active: 61.2 µM. For the same molecule, the outcome [3] was “inactive”, the AC50 [4] was active: 81.1 µM and the AC50 [5] was active: 47.6 µM and active: 86.6 µM. The AC50 [6] was active: 57 µM, the AC50 [7] was active: 49.3 µM and the AC50 [10] was active: 44.8 µM. The outcome [10] was “inactive”, the outcome [8] was “inactive” and the AC50 [9] was active: 76 µM.

In the case of `CCCCCCCCC(=O)O`, the outcome [1] is reported as “inactive”, the outcome [2] is reported as “inactive” and the AC50 [3] is reported as inconclusive: 46.1 µM. For the same molecule, the AC50 [4] was inconclusive: 83.4 µM, the AC50 [6] was inconclusive: 44.9 µM and the outcome [6] was “inactive”. For the same molecule, the outcome [7] was “inactive”, the AC50 [8] was inconclusive: 46.1 µM and the outcome [8] was “inactive”. For the same molecule, the AC50 [9] was inconclusive: 46.1 µM.

For `C=C1C[C@H]2[C@@H]3C=C(C)C4=CC(=O)CC[C@]4(C)[C@H]3CC[C@]2(C)[C@@]1(OC(C)=O)C(C)=O`, the AC50 [1] was active: 27.5 µM, the AC50 [2] was active: 49.5 µM and the outcome [3] was “inactive”. The outcome [4] was “inactive”, the outcome [7] was “inactive” and the AC50 [9] was inconclusive: 23 µM. For the same molecule, the outcome [9] was “inactive”.

In the case of `COc1cccc(-c2ccc(/C=C\CN3CCCCCC3)cc2Cl)c1`, the AC50 [1] is reported as inconclusive: 78.5 µM and active: 10.3 µM, the AC50 [2] is reported as inconclusive: 77.7 µM and inconclusive: 83 µM and the AC50 [3] is reported as active: 57.8 µM. The AC50 [4] was active: 70.5 µM, the AC50 [7] was active: 52.5 µM and the AC50 [9] was active: 73.8 µM.

For `CCn1nc(Cc2ccccc2)cc1C1CCN(C[C@H]2C[C@H](N(C)[C@@H](C(=O)O)C(C)C)C[C@@H]2c2cccc(F)c2)CC1`, the AC50 [1] was inconclusive: 50 µM, the AC50 [2] was inconclusive: 25.4 µM and the outcome [3] was “inactive”. The AC50 [4] was inconclusive: 46.1 µM, the AC50 [6] was inconclusive: 77.7 µM and the outcome [7] was “inactive”. For the same molecule, the AC50 [9] was inconclusive: 40.2 µM.

With `Cn1c([N+](=O)[O-])cnc1COC(N)=O` the outcome [1] was “inactive”, the outcome [2] was “inactive” and the AC50 [3] was inconclusive: 6.06 µM. For the same molecule, the AC50 [4] was inconclusive: 23 µM, the AC50 [6] was inconclusive: 23 µM and the AC50 [7] was inconclusive: 23 µM. The outcome [8] was “inactive” and the outcome [9] was “inactive”.

In the case of `CCCCc1oc2ccccc2c1C(=O)c1cc(I)c(OCCN(CC)CC)c(I)c1`, the AC50 [1] is reported as active: 8.75 µM, the AC50 [2] is reported as active: 8.94 µM and active: 8.82 µM and the AC50 [3] is reported as active: 59.9 µM. The AC50 [5] was active: 32.3 µM and active: 51.8 µM, the outcome [6] was “inactive” and the AC50 [7] was active: 31.3 µM and active: 50.9 µM and active: 23 µM. The AC50 [9] was active: 64.9 µM.

With `CC1=C(C)S(=O)(=O)CCS1(=O)=O` the AC50 [1] was inconclusive: 18.6 µM, the AC50 [2] was inconclusive: 50 µM and inconclusive: 68.4 µM and the AC50 [3] was inconclusive: 46.1 µM. The AC50 [4] was inconclusive: 46.1 µM, the AC50 [5] was inconclusive: 46.1 µM and inconclusive: 45.4 µM and the AC50 [6] was inconclusive: 46.1 µM. The AC50 [7] was inconclusive: 45.4 µM, the AC50 [10] was inconclusive: 46.1 µM and the AC50 [8] was inconclusive: 87.3 µM and inconclusive: 45.4 µM. The AC50 [11] was inconclusive: 83 µM.

In the case of `O=C1C(N(CO)C(=O)NCO)N(CO)C(=O)N1CO` (configuration not stated), the AC50 [1] is reported as inconclusive: 0.34 µM, the AC50 [2] is reported as inconclusive: 37.2 µM and the outcome [3] is reported as “inactive”. The AC50 [5] was inconclusive: 34.3 µM, the outcome [5] was “inactive” and the outcome [6] was “inactive”. For the same molecule, the AC50 [10] was inconclusive: 34.3 µM and inconclusive: 46.1 µM, the AC50 [8] was inconclusive: 34.3 µM and the outcome [8] was “inactive”. For the same molecule, the AC50 [9] was inconclusive: 34.3 µM and inconclusive: 75 µM.
